Test results: the supplement of paper PMC8728848
The other results are listed elsewhere or left out.

Legend:
Assay in all cases: glycan array binding signal (z-score within array); higher = stronger binding
Settings in all cases: glycan notation: IUPAC condensed, linker removed
Fuc(a1-2)Gal = molecular target: Fuc(a1-2)Gal
In short: (§1)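 Arrays were curated from the Consortium for Functional Glycomics database, 3228 in total, and kept only where the protein sequence was available. Binding is expressed as a within-array Z-score. This score was averaged across arrays of the same protein sequence at different concentrations or buffers and across linkers, and negative values can be read as non-binding.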

Fuc(a1-2)Gal(b1-3)GalNAc = molecular target: Fuc(a1-2)Gal(b1-3)GalNAc
In short: as §1

[1] = molecular target: Fuc(a1-2)Gal(b1-3)GalNAc(a1-3)[Fuc(a1-2)]Gal(b1-4)Glc
In short: as §1

[2] = molecular target: Fuc(a1-2)Gal(b1-3)GalNAc(a1-3)[Fuc(a1-2)]Gal(b1-4)GlcNAc
In short: as §1

[3] = molecular target: Fuc(a1-2)Gal(b1-3)GalNAc(b1-3)Gal
In short: as §1

[4] = molecular target: Fuc(a1-2)Gal(b1-3)GalNAc(b1-3)Gal(a1-4)Gal(b1-4)Glc
In short: as §1

[5] = molecular target: Fuc(a1-2)Gal(b1-3)GalNAc(b1-4)[Neu5Ac(a2-3)]Gal(b1-4)Glc
In short: as §1

Fuc(a1-2)Gal(b1-3)GlcNAc = molecular target: Fuc(a1-2)Gal(b1-3)GlcNAc
In short: as §1

[6] = molecular target: Fuc(a1-2)Gal(b1-3)GlcNAc(b1-2)Man(a1-3)[Fuc(a1-2)Gal(b1-3)GlcNAc(b1-2)Man(a1-6)]Man(b1-4)GlcNAc(b1-4)GlcNAc
In short: as §1

[7] = molecular target: Fuc(a1-2)Gal(b1-3)GlcNAc(b1-2)Man(a1-3)[Fuc(a1-2)Gal(b1-3)GlcNAc(b1-2)Man(a1-6)]Man(b1-4)GlcNAc(b1-4)[Fuc(a1-6)]GlcNAc
In short: as §1

[8] = molecular target: Fuc(a1-2)Gal(b1-3)GlcNAc(b1-3)Gal(b1-4)Glc
In short: as §1

[9] = molecular target: Fuc(a1-2)Gal(b1-3)GlcNAc(b1-3)GalNAc
In short: as §1

[10] = molecular target: Fuc(a1-2)Gal(b1-3)GlcNAc(b1-3)[Fuc(a1-2)Gal(b1-3)GlcNAc(b1-6)]GalNAc
In short: as §1

[11] = molecular target: Fuc(a1-2)Gal(b1-3)GlcNAc(b1-3)[Gal(b1-4)GlcNAc(b1-6)]Gal(b1-4)Glc
In short: as §1

[12] = molecular target: Fuc(a1-2)Gal(b1-3)GlcNAc(b1-3)[Neu5Ac(a2-6)Gal(b1-4)GlcNAc(b1-6)]Gal(b1-4)Glc
In short: as §1

[13] = molecular target: Fuc(a1-2)Gal(b1-3)GlcNAc6S
In short: as §1

[14] = molecular target: Fuc(a1-2)Gal(b1-3)[Fuc(a1-4)]GlcNAc
In short: as §1

[15] = molecular target: Fuc(a1-2)Gal(b1-3)[Fuc(a1-4)]GlcNAc(b1-2)Man(a1-3)[Fuc(a1-2)Gal(b1-3)[Fuc(a1-4)]GlcNAc(b1-2)Man(a1-3)]Man(b1-4)GlcNAc(b1-4)GlcNAc
In short: as §1

[16] = molecular target: Fuc(a1-2)Gal(b1-3)[Fuc(a1-4)]GlcNAc(b1-2)Man(a1-3)[Fuc(a1-2)Gal(b1-3)[Fuc(a1-4)]GlcNAc(b1-2)Man(a1-6)]Man(b1-4)GlcNAc(b1-4)[Fuc(a1-6)]GlcNAc(b1-4)[Fuc(a1-6)]GlcNAc
In short: as §1

[17] = molecular target: Fuc(a1-2)Gal(b1-3)[Fuc(a1-4)]GlcNAc(b1-3)[Fuc(a1-3)[Gal(b1-4)]GlcNAc(b1-6)]Gal(b1-4)Glc
In short: as §1

[18] = molecular target: Fuc(a1-2)Gal(b1-3)[Fuc(a1-4)]GlcNAc(b1-3)[Gal(b1-4)GlcNAc(b1-6)]Gal(b1-4)Glc
In short: as §1

Fuc(a1-2)Gal(b1-4)Glc = molecular target: Fuc(a1-2)Gal(b1-4)Glc
In short: as §1

B1: SJCP1531 (Schistosoma japonicum) (protein)
chain: MFKVRIINLVNISTVLLLINLLQTKSQVNVEQLVTVLEVNIKAQLKNKTTEVLVEWNPLYQDNSMPEYRKLLDETCKLFLPFVNEKVPPSTYGGECTNANFSEAPQDGSYSRVNAELRLIYKYSDNPQIQTDRLQDDLNDREEFITSESSFVAYNPKFTVKIEKLFIPISESQTTPPPTTAKNDASKKDDDDNGGEDSKAPIDTFAMTASGNKGKKDDDDNGGEDSKAPIDTFAMTASGSKDERSTWTIIGIITLVVLIFVVIGGGITVFVKRC
glycan array binding signal (z-score) (Fuc(a1-2)Gal): 0.475
glycan array binding signal (z-score) (Fuc(a1-2)Gal(b1-3)GalNAc): -0.01
glycan array binding signal (z-score) [1]: -1.49
glycan array binding signal (z-score) [2]: -0.571
glycan array binding signal (z-score) [3]: -0.244
glycan array binding signal (z-score) [4]: -0.517
glycan array binding signal (z-score) [5]: -0.648
glycan array binding signal (z-score) (Fuc(a1-2)Gal(b1-3)GlcNAc): -1.13
glycan array binding signal (z-score) [6]: -0.207
glycan array binding signal (z-score) [7]: 0.318
glycan array binding signal (z-score) [8]: -1.19
glycan array binding signal (z-score) [9]: -0.217
glycan array binding signal (z-score) [10]: -1.13
glycan array binding signal (z-score) [11]: -1.05
glycan array binding signal (z-score) [12]: -1.34
glycan array binding signal (z-score) [13]: -0.955
glycan array binding signal (z-score) [14]: 0.144
glycan array binding signal (z-score) [15]: 0.767
glycan array binding signal (z-score) [16]: 1.79
glycan array binding signal (z-score) [17]: -0.454
glycan array binding signal (z-score) [18]: 0.498
glycan array binding signal (z-score) (Fuc(a1-2)Gal(b1-4)Glc): 0.074
